The text below walks through data of PubChem BioAssay AID2458 (Broad Institute, 2010).

Chains of the proteins cited; added tags and fusions are not shown.
UniProt P08659, whole entry, looked up: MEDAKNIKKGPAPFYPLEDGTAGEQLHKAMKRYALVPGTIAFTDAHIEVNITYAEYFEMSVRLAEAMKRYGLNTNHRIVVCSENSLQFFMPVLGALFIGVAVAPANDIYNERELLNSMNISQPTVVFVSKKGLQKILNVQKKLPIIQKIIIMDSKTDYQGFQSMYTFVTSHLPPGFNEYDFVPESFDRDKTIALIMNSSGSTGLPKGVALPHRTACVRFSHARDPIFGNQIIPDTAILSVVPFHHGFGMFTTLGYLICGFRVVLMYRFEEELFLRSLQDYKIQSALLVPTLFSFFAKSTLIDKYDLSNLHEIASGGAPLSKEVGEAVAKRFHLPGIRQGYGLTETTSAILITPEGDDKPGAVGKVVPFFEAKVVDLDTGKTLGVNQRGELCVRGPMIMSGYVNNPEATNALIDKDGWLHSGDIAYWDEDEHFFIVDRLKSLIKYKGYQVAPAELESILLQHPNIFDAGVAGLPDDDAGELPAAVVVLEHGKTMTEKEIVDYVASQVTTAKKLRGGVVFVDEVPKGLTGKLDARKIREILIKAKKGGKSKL

This assay addresses Luciferin 4-monooxygenase (Photinus pyralis) (UniProt P08659). Briefly: Photinus pyralis luciferase translation or activity inhibitors, H4 neuroglioma cells, confirmatory dose response (AID 2458). The following applies: luciferase luminescence, at 1.2 µM (top of the series).

Some of the results follow. Where no call is shown, the source marks the result inconclusive.

With `O=C(/C=C\Nc1ccc2c(c1)OCO2)c1ccccn1`, the activity change, negative = inhibition was -37.3%.
